In assay [1] the target is recombinant hTACSTD2-Fc-His protein (Creative BioMart) (human) (UniProt P09758). In words: low-density antigen-coated ELISA, 0.1 µg/mL hTACSTD2-Fc-His, culture supernatant of transfected cells.
Assay [2] has the same target. In words: low-density antigen-coated ELISA, plate coated with 0.1 µg/mL hTACSTD2-Fc-His.

Amino acid sequences for entries named in this document (tags omitted). A change or cut given only in a name is not applied to a line headed by its entry.
UniProt P09758: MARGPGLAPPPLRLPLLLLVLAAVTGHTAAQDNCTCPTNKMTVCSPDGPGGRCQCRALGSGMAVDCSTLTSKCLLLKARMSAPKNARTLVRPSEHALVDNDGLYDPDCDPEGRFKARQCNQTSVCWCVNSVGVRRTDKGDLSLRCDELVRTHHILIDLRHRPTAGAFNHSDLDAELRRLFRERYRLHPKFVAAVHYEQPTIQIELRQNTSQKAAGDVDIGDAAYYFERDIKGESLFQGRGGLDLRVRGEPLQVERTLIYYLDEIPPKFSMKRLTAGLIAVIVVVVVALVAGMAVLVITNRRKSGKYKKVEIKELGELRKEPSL

Results are given in words; binding and its absence hold for the method and conditions named. Some results given as binding are weak or reduced against the parent protein; the word gives no strength.

B1: HuK5-70 VH A40R (antibody, V domains shown)
VH: QVQLVQSGAEVKKPGASVKVSCKASGYTFTIYWINWVRQRPGQRLEWIGNIYPSDSYTNYNQKFKDKATLTVDTSASTAYMELSSLRSEDTAVYYCTRTSMADYWGQGTLVTVSS
VL: EIVLTQSPATLSLSPGERATLSCRASQSIGTSIHWYQQKPGQAPRLLIKYASESISGIPARFSGSGSGTDFTLTISSLEPEDFAVYYCQQSNSWPFTFGQGTKVEIK
Take B1: in assay [1], the binding result is “binds”.

B2: humanized T6-16 antibody HuT6-16-2 (antibody, V domains shown)
VH: QVQLVQSGAEVKKPGASVKVSCKASGYTFTDYNMHWVRQAPGQGLEWIGYIYPYNGGTGYNQRFKSRATMTVDTSTSTAYMELRSLRSDDTAVYYCAREDYGSSPSYAMDYWGQGTMVTVSS
VL: DIVMTQSPLSLPVTPGEPASISCRSSQSLVHGNGNTYLHWYLQKPGQSPQLLIYKVSNRFSGVPDRFSGSGSGTDFTLKISRVEAEDVGVYYCSQTTHVPTFGGGTKVEIK
Regarding B2, the binding entry in assay [2] is given as “binds”.

The values are drawn from patent publication US20160333110A1.
